PubChem BioAssay AID288 (DTP/NCI, 2004)
The list does not hold the whole screen: it is rich in T/C values a quarter to a half above the control, in often repeated tests (any T/C) and in doses without a T/C. Further doses and runs are listed elsewhere. T/C: endpoint of the treated group in % of that of the vehicle group. Schedules are NCI's codes, read here as Q, the interval in days (D) or hours (H), X, the number of doses. Some doses have a count of surviving animals in place of a T/C: the source holds a T/C of zero for them, seemingly a mark for toxic or unscored doses. Counts of survivors are from the toxicity check (mostly the fifth day) where no day follows; animals may have died later. Where survival is the endpoint, the PubChem record calls one and a half times the control and up active, and a quarter to a half above the control has no call in these data; cut-offs in other NCI protocols can differ. Numbered stars: 1 amine (or outer) side, 2 acyl side, 3 side chain; on linkers, the order of the positions; unused ones are H or OH. Bridge positions count the residues as written; N and C are the ends. Square brackets hold non-standard residues; d marks the D form. Peptide text beside a SMILES is read from it. I, II: the chains in the order shown. * marks the point of attachment. ξ: configuration not given here. Quinaldoyl(3-OH,6-OMe) = COc1ccc2nc(C(=O)*)c(O)cc2c1; X1 = CCC(=O)OC1CC=NN([*:1])C1C(=O)[*:2]; X2 = CC(=O)OC1CC=NN([*:1])C1C(=O)[*:2]; ξNMeVal(3-OH) = CNC(C(=O)O)C(C)(C)O; Sar = CNCC(=O)O

System: BDF1 mice, M5076 sarcoma s.c., survival/tumor T/C
Experiment: NCI In Vivo Anticancer Drug Screen. Data for tumor model Sarcoma M5076 (subcutaneous) in B6D2F1 (BDF1) mice
Experimental: The antitumor activity of compounds was measured in mice bearing transplantable tumors. Survival or tumor size were measured and the results are expressed as the measurement made in the treated group (T) divided by the measurement made in the vehicle treated control group (C). The tumor model used in this assay is Sarcoma M5076 (subcutaneous) in B6D2F1 (BDF1) mice

`CCC(=O)OC1CC=NN2C(=O)C(NC(=O)c3nc4ccc(OC)cc4cc3O)COC(=O)C(C(C)(C)O)N(C)C(=O)CN(C)C(=O)CNC(=O)C3C(OC(C)=O)CC=NN3C(=O)C(NC(=O)c3nc4ccc(OC)cc4cc3O)COC(=O)C(C(C)(C)O)N(C)C(=O)CN(C)C(=O)CNC(=O)C12` (centres undefined) (I: {Quinaldoyl(3-OH,6-OMe)}-S[X1]G[Sar][ξNMeVal(3-OH)] / II: {Quinaldoyl(3-OH,6-OMe)}-S[X2]G[Sar][ξNMeVal(3-OH)]; ester I:1-II:C, I:C-II:1; configuration not given here) was tested, and the survivor count (T/C endpoint: median survival time, dose: 37.5 micrograms/kg/injection, schedule: Q01DX009 (ip), vehicle: Klucel (hydroxypropylcellulose) (HPC), higher T/C = longer survival) was 2 of 10 on day 9, the survivor count (T/C endpoint: median survival time, dose: 75.0 micrograms/kg/injection, schedule: Q01DX009 (ip), vehicle: Klucel (hydroxypropylcellulose) (HPC), higher T/C = longer survival) was 0 of 10 on day 9 and the survivor count (T/C endpoint: median survival time, dose: 150.0 micrograms/kg/injection, schedule: Q01DX009 (ip), vehicle: Klucel (hydroxypropylcellulose) (HPC), higher T/C = longer survival) was 0 of 10 on day 9. For the same molecule, the survivor count (T/C endpoint: median survival time, dose: 300.0 micrograms/kg/injection, schedule: Q01DX009 (ip), vehicle: Klucel (hydroxypropylcellulose) (HPC), higher T/C = longer survival) was 0 of 10 on day 9, the survivor count (T/C endpoint: median tumor weight (est.), dose: 37.5 micrograms/kg/injection, schedule: Q01DX009 (ip), vehicle: DMSO, higher T/C = larger tumour) was 1 of 10 on day 20 and the survivor count (T/C endpoint: median tumor weight (est.), dose: 75.0 micrograms/kg/injection, schedule: Q01DX009 (ip), vehicle: DMSO, higher T/C = larger tumour) was 0 of 10 on day 20. The survivor count (T/C endpoint: median tumor weight (est.), dose: 150.0 micrograms/kg/injection, schedule: Q01DX009 (ip), vehicle: DMSO, higher T/C = larger tumour) was 0 of 10 on day 20 and the survivor count (T/C endpoint: median tumor weight (est.), dose: 300.0 micrograms/kg/injection, schedule: Q01DX009 (ip), vehicle: DMSO, higher T/C = larger tumour) was 0 of 10 on day 20.
`O=CC(NC(=O)N(CCCl)N=O)C(O)C(O)C(O)CO` (centres undefined) was tested, and the survivor count (T/C endpoint: mean tumor weight, dose: 12.0 mg/kg/injection, schedule: Q02DX011 (ip), vehicle: saline, higher T/C = larger tumour) was 6 of 10 on day 22, the T/C (T/C endpoint: median survival time, dose: 14.0 mg/kg/injection, schedule: Q01DX001 (ip), vehicle: saline, evaluated on day 17, higher T/C = longer survival) was 128 % of control and the T/C (T/C endpoint: median survival time, dose: 14.0 mg/kg/injection, schedule: Q01DX001 (ip), vehicle: saline, evaluated on day 61, higher T/C = longer survival) was 127 % of control.
`CCCNC(=O)ON1C(=O)C2C3C=CC(C3)C2C1=O` (centres undefined) was tested, and the survivor count (T/C endpoint: median survival time, dose: 50.0 mg/kg/injection, schedule: Q01DX009 (ip), vehicle: saline with Tween-80, higher T/C = longer survival) was 0 of 10 on day 9, the survivor count (T/C endpoint: median survival time, dose: 100.0 mg/kg/injection, schedule: Q01DX009 (ip), vehicle: saline with Tween-80, higher T/C = longer survival) was 0 of 10 on day 9 and the survivor count (T/C endpoint: median survival time, dose: 200.0 mg/kg/injection, schedule: Q01DX009 (ip), vehicle: saline with Tween-80, higher T/C = longer survival) was 0 of 10 on day 9. The T/C (T/C endpoint: median tumor weight (est.), dose: 12.5 mg/kg/injection, schedule: Q01DX009 (ip), vehicle: saline with Tween-80, evaluated on day 20, higher T/C = larger tumour) was 129 % of control, the survivor count (T/C endpoint: median tumor weight (est.), dose: 50.0 mg/kg/injection, schedule: Q01DX009 (ip), vehicle: saline with Tween-80, higher T/C = larger tumour) was 0 of 10 on day 20 and the survivor count (T/C endpoint: median tumor weight (est.), dose: 100.0 mg/kg/injection, schedule: Q01DX009 (ip), vehicle: saline with Tween-80, higher T/C = larger tumour) was 0 of 10 on day 20. For the same molecule, the survivor count (T/C endpoint: median tumor weight (est.), dose: 200.0 mg/kg/injection, schedule: Q01DX009 (ip), vehicle: saline with Tween-80, higher T/C = larger tumour) was 0 of 10 on day 20.
For `COC(=N)CCCCC(=N)OC`, the T/C (T/C endpoint: median tumor weight (est.), dose: 200.0 mg/kg/injection, schedule: Q01DX009 (ip), vehicle: saline, evaluated on day 20, higher T/C = larger tumour) was 127 % of control.
